# Measured values from PMC10901950 (Neurochemical Research, 2023).
# HELM strings list residues between dots; [ac] is acetyl, [am] amide, other brackets name non-standard units.
# Assay: general procedure: Fmoc solid-phase peptide synthesis; Fmoc-Phe Wang (100–200 mesh, 0.69 mM/g, Novabiochem) or MBHA Rink-Amide peptide resin (100–200 mesh)
# Details: whole synthesis, analytical RP-HPLC, Vydac C18 column
row,Substance,final HPLC purity
1,PEPTIDE1{Y.P.L.D.L.F.[am]}$$$$V2.0,95%
2,PEPTIDE1{Y.P.L.D.L.F}$$$$V2.0,98%
3,PEPTIDE1{Y.[Inp].L.D.L.F.[am]}$$$$V2.0,98%
4,PEPTIDE1{Y.[Inp].L.D.L.F}$$$$V2.0,97%
5,PEPTIDE1{Y.[RNip].L.D.L.F}$$$$V2.0,98%
6,PEPTIDE1{[Dmt].P.L.D.L.F}$$$$V2.0,95%
7,PEPTIDE1{[Dmt].[Inp].L.D.L.F}$$$$V2.0,98%
8,PEPTIDE1{[Dmt].[RNip].L.D.L.F}$$$$V2.0,98%
